Binding data for 1 substance are collected here from doi:10.1101/2025.03.06.641798.

Chains of the proteins cited; added tags and fusions are not shown. Lines headed by an entry give the natural chain unless they say otherwise; changes in a name come on top.
UniProt Q86VE9: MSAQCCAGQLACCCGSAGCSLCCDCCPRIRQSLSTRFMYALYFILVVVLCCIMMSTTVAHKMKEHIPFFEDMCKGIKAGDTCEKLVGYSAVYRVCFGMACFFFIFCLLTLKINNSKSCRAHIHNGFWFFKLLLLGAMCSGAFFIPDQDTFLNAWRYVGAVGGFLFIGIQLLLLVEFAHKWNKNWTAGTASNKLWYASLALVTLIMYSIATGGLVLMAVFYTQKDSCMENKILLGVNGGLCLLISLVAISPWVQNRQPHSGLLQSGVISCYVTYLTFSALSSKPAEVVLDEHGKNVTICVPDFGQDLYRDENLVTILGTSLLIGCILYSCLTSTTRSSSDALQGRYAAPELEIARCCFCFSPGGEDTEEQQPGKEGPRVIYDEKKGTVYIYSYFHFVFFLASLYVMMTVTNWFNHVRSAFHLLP
UniProt P03407: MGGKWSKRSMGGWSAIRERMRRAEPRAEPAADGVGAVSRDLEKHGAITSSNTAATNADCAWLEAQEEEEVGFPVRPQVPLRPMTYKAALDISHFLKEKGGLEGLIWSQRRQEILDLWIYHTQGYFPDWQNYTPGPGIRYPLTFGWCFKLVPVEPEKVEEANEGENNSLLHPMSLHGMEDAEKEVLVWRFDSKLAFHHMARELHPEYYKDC

The target of the assay is Serine incorporator 5 (SERINC5) with a FLAG-tag (human) (UniProt Q86VE9). Put plainly: co-IP; Ser5-FLAG expressed with Nef-HA or glycoMA-HA in HEK293T cells; cells separated into cytosolic and plasma membrane fractions; immunoprecipitated from both fractions by anti-FLAG, detected by WB.

Results are given in words; binding and its absence hold for the method and conditions named. In cells and extracts the contact can be indirect.

As for “HIV-1 Negative factor (Nef) of SF2 with an HA-tag (from UniProt P03407 1-210)”, the binding result is recorded as “no binding”.
